# Reference: article PMC10413764
# Amino acid sequences for entries named in this document (tags omitted).
# UniProt P10275: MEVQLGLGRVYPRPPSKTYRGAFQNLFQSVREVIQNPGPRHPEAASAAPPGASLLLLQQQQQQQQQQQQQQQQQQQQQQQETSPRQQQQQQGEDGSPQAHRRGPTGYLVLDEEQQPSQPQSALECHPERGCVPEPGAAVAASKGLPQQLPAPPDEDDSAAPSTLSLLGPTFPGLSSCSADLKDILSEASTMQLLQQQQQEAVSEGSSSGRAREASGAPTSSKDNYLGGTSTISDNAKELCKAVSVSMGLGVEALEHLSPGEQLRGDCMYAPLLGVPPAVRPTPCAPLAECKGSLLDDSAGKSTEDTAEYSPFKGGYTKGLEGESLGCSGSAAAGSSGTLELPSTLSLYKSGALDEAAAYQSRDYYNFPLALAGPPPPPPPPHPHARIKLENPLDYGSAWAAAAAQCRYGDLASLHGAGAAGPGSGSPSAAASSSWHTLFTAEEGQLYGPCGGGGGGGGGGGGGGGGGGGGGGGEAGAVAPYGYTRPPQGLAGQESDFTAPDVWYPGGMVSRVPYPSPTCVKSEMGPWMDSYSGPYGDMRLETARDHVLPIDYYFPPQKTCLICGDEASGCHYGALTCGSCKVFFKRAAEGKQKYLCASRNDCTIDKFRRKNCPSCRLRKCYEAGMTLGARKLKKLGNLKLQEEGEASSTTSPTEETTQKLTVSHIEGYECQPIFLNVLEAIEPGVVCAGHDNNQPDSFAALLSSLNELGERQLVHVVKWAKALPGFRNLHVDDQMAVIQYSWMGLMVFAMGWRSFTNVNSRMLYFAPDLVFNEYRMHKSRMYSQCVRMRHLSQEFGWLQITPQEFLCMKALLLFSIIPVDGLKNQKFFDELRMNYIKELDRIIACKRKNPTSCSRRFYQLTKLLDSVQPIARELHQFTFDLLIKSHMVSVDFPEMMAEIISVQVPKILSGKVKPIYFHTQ
# UniProt Q15388: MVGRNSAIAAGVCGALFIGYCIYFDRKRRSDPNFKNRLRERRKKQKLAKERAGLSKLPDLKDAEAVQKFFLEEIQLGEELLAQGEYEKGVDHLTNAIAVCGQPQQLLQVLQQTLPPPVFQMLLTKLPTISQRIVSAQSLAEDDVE
# These are yes or no findings as the source states them, for the method shown. In cells and extracts the contact can be indirect. Some binding calls cover weakened binding; strength is not graded here.
# Experiments:
# [1] = target: Flag-AR (androgen receptor, from pCMV-AR-Flag) (UniProt P10275); experiment: co-IP; HEK293T cells co-transfected with plasmids expressing Flag-AR and His-TOMM20 (wild type or mutants); extracts in RIPA buffer with protease inhibitors, antibody at 4 °C overnight, protein A/G-magnetic beads 2 h; which antibody precipitated is not told
# GST-AR(FL) = GST-AR(FL) (UniProt P10275); experiment: pull-down; GST fusion proteins on glutathione-sepharose resins incubated with cell lysates of LNCaP cells (overexpressing TOMM20) at 4 °C for 12 h, washed four times, immunoblot with anti-TOMM20 antibody; only the target purified
binding [1],binding (GST-AR(FL)),Substance
binds,–,"His/Myc-TOMM20 (translocase of the outer mitochondrial membrane complex subunit 20), wild type (from UniProt Q15388 1-145)"
–,binds,TOMM20 in cell lysates of LNCaP cells overexpressing TOMM20 (from UniProt Q15388 1-145)
